Source: US20160333110A1
These are yes or no findings as the source states them, for the method shown. Some results given as binding are weak or reduced against the parent protein; the word gives no strength.

Protein sequences, listed by entry. Tags and fused reporters are not part of them. Lines headed by an entry give the natural chain unless they say otherwise; changes in a name come on top.
UniProt P09758: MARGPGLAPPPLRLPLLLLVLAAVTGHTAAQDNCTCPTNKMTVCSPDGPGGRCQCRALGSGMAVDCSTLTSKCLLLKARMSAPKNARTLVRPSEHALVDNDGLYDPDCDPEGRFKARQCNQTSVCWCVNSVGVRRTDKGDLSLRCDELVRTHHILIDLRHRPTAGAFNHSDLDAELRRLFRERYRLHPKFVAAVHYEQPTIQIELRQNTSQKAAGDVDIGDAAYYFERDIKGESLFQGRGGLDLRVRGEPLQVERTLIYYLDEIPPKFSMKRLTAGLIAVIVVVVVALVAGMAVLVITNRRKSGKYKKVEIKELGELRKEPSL

Legend:
[1] = target: recombinant hTACSTD2-Fc-His protein (Creative BioMart) (human) (UniProt P09758); test: low-density antigen-coated ELISA, plate coated with 0.1 µg/mL hTACSTD2-Fc-His
[2] = target: recombinant hTACSTD2-Fc-His protein (Creative BioMart) (human) (UniProt P09758); test: low-density antigen-coated ELISA, 0.1 µg/mL hTACSTD2-Fc-His, culture supernatant of transfected cells

B1: humanized T6-16 antibody HuT6-16-2 (antibody, V domains shown)
VH: QVQLVQSGAEVKKPGASVKVSCKASGYTFTDYNMHWVRQAPGQGLEWIGYIYPYNGGTGYNQRFKSRATMTVDTSTSTAYMELRSLRSDDTAVYYCAREDYGSSPSYAMDYWGQGTMVTVSS
VL: DIVMTQSPLSLPVTPGEPASISCRSSQSLVHGNGNTYLHWYLQKPGQSPQLLIYKVSNRFSGVPDRFSGSGSGTDFTLKISRVEAEDVGVYYCSQTTHVPTFGGGTKVEIK
binding [1]: binds

B2: HuK5-70 VH A40R (antibody, V domains shown)
VH: QVQLVQSGAEVKKPGASVKVSCKASGYTFTIYWINWVRQRPGQRLEWIGNIYPSDSYTNYNQKFKDKATLTVDTSASTAYMELSSLRSEDTAVYYCTRTSMADYWGQGTLVTVSS
VL: EIVLTQSPATLSLSPGERATLSCRASQSIGTSIHWYQQKPGQAPRLLIKYASESISGIPARFSGSGSGTDFTLTISSLEPEDFAVYYCQQSNSWPFTFGQGTKVEIK
binding [2]: binds
